Measured values: PubChem BioAssay (EPA / NIEHS)
Values joined by “and” are separate entries in the source; they are usually repeats but may differ in a detail not shown here. Equal entries are not always repeated. The inconclusive results got no clear call from the source; some entries with a clear call stand among them for comparison. For some assays here: A potency beside an inconclusive call is a rough fit, not a confirmed value. The source holds several records for some structures; these can differ, active in one and inactive in another. Active and inactive are the calls of the source. Rule for the calls: active = hit-call score of the fitted dose curve at least 0.9, where 1 is the maximum; inconclusive = response in the unintended direction; inactive = score below 0.9.

Protein sequences, listed by entry. Tags and fused reporters are not part of them. Lines headed by an entry give the natural chain unless they say otherwise; changes in a name come on top.
UniProt Q96RI1: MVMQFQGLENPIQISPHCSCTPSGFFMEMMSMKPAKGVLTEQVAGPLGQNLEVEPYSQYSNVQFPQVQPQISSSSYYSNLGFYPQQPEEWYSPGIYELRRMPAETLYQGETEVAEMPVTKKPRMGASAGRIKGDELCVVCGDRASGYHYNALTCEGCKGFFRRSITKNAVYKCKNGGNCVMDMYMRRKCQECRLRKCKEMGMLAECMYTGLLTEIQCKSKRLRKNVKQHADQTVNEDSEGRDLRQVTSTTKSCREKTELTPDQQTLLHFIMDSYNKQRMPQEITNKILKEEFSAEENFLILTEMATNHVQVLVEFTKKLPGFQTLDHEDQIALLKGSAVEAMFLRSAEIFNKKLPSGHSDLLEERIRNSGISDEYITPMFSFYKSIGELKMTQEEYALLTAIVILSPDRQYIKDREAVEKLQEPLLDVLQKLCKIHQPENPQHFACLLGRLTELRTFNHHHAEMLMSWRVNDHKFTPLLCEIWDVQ
UniProt P37231: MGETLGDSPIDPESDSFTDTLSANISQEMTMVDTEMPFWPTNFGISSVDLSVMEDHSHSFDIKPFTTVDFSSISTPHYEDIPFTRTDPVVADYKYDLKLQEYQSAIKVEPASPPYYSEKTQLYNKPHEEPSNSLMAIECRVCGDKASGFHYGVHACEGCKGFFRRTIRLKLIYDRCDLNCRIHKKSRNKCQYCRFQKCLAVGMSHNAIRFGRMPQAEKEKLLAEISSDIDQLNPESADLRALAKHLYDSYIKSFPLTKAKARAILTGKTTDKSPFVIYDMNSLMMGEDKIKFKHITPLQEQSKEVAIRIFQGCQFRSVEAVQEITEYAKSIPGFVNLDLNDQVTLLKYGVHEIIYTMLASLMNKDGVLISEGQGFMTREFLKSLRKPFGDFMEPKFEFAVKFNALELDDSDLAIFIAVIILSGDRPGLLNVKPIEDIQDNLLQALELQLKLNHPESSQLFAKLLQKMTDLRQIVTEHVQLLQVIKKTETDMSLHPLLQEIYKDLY
UniProt P11473: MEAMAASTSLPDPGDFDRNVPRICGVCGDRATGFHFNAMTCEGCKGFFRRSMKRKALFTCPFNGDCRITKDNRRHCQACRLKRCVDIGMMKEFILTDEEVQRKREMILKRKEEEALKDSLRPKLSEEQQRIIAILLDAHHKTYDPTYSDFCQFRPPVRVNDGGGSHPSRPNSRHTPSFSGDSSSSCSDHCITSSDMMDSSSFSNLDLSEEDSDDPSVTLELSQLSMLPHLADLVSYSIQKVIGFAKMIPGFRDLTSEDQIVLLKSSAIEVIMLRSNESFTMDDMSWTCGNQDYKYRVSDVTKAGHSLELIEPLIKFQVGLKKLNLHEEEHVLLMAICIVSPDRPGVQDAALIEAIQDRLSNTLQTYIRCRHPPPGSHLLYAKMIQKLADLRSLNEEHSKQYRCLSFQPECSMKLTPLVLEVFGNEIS
UniProt P19793: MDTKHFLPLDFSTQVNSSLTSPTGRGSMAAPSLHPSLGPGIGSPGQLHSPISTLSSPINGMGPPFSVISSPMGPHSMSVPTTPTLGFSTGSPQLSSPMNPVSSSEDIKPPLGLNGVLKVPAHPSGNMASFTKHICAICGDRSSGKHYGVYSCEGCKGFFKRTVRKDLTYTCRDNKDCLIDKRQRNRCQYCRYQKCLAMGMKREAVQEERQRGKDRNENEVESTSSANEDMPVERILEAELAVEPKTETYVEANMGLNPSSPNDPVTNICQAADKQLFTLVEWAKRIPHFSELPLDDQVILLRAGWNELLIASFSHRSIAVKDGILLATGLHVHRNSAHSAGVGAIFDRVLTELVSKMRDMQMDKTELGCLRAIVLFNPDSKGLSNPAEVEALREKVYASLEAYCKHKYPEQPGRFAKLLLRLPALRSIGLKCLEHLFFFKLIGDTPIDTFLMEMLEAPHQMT
UniProt P04637, whole entry, looked up: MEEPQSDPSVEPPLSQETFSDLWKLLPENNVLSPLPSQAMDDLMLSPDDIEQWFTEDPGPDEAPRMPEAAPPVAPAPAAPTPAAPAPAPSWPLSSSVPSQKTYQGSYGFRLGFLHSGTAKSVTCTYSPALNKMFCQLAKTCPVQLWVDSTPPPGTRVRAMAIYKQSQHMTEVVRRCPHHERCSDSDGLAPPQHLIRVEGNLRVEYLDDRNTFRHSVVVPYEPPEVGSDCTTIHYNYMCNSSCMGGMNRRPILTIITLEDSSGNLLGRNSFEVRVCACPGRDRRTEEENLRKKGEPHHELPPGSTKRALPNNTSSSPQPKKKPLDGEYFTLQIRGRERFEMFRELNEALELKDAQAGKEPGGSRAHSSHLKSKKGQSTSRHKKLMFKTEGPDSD
UniProt P04150: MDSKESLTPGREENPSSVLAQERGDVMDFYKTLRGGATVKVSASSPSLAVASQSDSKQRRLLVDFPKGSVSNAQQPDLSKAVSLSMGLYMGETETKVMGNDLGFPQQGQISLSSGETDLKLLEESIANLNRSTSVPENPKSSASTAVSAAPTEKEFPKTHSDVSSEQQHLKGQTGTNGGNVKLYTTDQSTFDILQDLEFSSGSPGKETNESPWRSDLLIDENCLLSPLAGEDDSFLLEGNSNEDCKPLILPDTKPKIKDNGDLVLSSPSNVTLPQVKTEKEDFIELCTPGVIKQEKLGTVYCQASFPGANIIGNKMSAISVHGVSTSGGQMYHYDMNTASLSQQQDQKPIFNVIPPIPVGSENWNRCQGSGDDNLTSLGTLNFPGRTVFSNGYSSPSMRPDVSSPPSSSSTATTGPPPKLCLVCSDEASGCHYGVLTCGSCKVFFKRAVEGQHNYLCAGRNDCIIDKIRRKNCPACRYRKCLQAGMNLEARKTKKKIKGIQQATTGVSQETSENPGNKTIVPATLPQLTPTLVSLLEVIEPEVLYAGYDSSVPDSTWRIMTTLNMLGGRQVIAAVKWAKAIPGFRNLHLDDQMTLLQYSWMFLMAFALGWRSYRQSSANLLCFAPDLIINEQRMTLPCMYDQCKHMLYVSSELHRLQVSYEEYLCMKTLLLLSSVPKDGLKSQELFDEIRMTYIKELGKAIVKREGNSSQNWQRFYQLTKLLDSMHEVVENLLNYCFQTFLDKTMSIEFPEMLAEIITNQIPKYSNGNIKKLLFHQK
UniProt O75469: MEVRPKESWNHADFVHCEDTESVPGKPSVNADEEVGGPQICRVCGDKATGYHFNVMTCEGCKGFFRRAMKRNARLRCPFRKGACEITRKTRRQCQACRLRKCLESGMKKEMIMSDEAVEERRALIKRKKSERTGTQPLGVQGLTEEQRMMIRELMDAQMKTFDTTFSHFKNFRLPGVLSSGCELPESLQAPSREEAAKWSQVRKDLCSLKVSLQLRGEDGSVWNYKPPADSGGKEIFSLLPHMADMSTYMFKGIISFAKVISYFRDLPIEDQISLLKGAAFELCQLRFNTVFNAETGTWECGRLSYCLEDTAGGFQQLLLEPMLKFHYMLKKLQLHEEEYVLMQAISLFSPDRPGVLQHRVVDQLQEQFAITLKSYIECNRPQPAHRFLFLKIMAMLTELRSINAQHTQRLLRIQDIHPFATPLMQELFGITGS
UniProt Q03181: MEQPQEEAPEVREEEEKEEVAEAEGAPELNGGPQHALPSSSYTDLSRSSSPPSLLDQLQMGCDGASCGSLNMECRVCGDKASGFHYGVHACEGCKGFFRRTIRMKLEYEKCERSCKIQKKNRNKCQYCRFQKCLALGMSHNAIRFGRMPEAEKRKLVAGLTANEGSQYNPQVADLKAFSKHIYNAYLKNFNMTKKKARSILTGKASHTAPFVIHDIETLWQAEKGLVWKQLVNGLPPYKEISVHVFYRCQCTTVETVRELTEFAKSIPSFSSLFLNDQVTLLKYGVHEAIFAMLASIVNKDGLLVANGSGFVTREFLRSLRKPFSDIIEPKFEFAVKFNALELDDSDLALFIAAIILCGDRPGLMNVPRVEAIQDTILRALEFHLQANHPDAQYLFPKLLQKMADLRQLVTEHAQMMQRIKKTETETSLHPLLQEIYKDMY

What was measured:
[1] = target: Bile acid receptor (Homo sapiens) (UniProt Q96RI1); assay: ATG_FXR_TRANS: Attagene TRANS-FACTORIAL HepG2 Assay for Farnesoid X Receptor (FXR) (AID 2282979); details: HepG2 Attagene TRANS FXR-GAL4 reporter transcription;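 note: hits raise reporter mRNA above DMSO so AC50 marks FXR activation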
Method in brief: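 Read-out: fluorescent reporter transcripts quantified by capillary electrophoresis after RT-PCR of total RNA. Source cells were HepG2 transiently carrying chimeric NR-GAL4 plus GAL4-UAS reporter units, dosed 24 h. Activity fitted upward relative to DMSO baseline.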

[2] = target: Peroxisome proliferator-activated receptor gamma (Homo sapiens) (UniProt P37231); assay: ATG_PPARg_TRANS: Attagene TRANS-FACTORIAL HepG2 Assay for human Peroxisome Proliferator-activated Receptor-gamma (PPARg) (AID 2283007)
Method in brief: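 Endpoint reflects upward reporter mRNA change versus DMSO controls. Setup: transiently transfected HepG2, GAL4-UAS reporters driven by chimeric NR-Gal4, 24 h incubation, RT-PCR with capillary electrophoresis read-out.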

[3] = target: human Vitamin D Receptor (VDR), VDR (gene 7421) (UniProt P11473); assay: ATG_VDR_TRANS: Attagene TRANS-FACTORIAL HepG2 Assay for human Vitamin D Receptor (VDR) (AID 2283022)
Method in brief: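 RT-PCR/capillary electrophoresis read-out of reporter mRNA induction in transiently transfected HepG2; 24 h dosing; chimeric NR-Gal4 (TRANS format); gain-of-signal fit against DMSO baseline.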

[4] = target: Retinoic acid receptor RXR-alpha (Homo sapiens) (UniProt P19793); assay: OT_NURR1_NURR1RXRa_1440: Odyssey Thera (OT) 24-hour HEK293T Protein Complementation Assay for Nurr1/retinoid X receptor (RXR) (AID 2283386)
Method in brief: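 Fluorescence PCA read-out; HEK293T; 24 h post-dose; bait/prey fused to reporter fragments; gain-of-signal fit vs DMSO negative control.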

[5] = target: Cellular tumor antigen p53 (Homo sapiens) (UniProt P04637); assay: TOX21_p53_BLA_p2_ratio: Tox21 HCT-116 p53 Agonism Beta-lactamase Assay, Ratio, Phase 2 (AID 2283592)
Method in brief: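 Readout: blue/green (460/530 nm) FRET emission ratio after 2 h CCF4-AM loading at room temperature, excitation 405 nm. HCT116 p53 bla cells, 16 h compound exposure at 37C, 5% CO2; agonist direction fitted against DMSO baseline.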

[6] = target: Cellular tumor antigen p53 (Homo sapiens) (UniProt P04637); assay: TOX21_p53_BLA_p3_ratio: Tox21 HCT-116 p53 Agonism Beta-lactamase Assay, Ratio, Phase 3 (AID 2283596)
Method in brief: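 Cells were seeded at 4000/well, rested 5 h at 37C, then dosed with DMSO compound solutions (217-fold dilution) for 16 h. CCF4-AM substrate was loaded for 2 h at room temperature, and the 460/530 nm emission ratio was fitted for gain of signal versus DMSO.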

[7] = TOX21_p53_BLA_p4_viability: Viability Assessment in the Tox21 HCT-116 p53 Agonism Beta-lactamase Assay, Phase 4 (AID 2283597);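 note: hits lower the luminescence signal meaning cytotoxicity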
Method in brief: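 ATP content by CellTiter-Glo luminescence, 30 min RT, read after the beta-lactamase ratio step. Cells: HCT116, 4000/well, compound added after 5 h, exposure 16 h at 37C. Signal loss = reduced viability.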

[8] = ACEA_ER_AUC_viability: ACEA Biosciences xCELLigence Real-Time Cell Analysis on Estrogen Receptor Agonism for Viability (AID 2283782);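 note: hit means loss of impedance signal meaning reduced cell growth or viability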
Method in brief: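 Continuous-exposure impedance cell analysis uses T-47D cells in charcoal-stripped serum, eight 1:4 dilutions topping at 100 uM final, biological duplicate. Area under the growth curve at 80 h is fitted against DMSO baseline.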

[9] = target: Glucocorticoid receptor (Homo sapiens) (UniProt P04150); assay: ATG_GR_TRANS: Attagene TRANS-FACTORIAL HepG2 Assay for human Glucocorticoid Receptor (GR) (AID 2282978); details: HepG2 Attagene TRANS GR reporter, mRNA transcription;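 note: activators score as hits since higher reporter transcript over DMSO is fitted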
Method in brief: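 Exogenous NR-GAL4 fusion activity was assessed through induced GAL4-UAS reporter transcripts in transfected human HepG2 cells, quantified after 24 h by RT-PCR and fluorescent capillary electrophoresis with DMSO as baseline.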

[10] = ATG_M_06_TRANS: Attagene TRANS-FACTORIAL HepG2 Assay for M06 Transcription Factor (Internal Marker) (AID 2282983); details: HepG2 Attagene TRANS M06 internal marker reporter;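 for AC50: potency for rise in reporter mRNA above DMSO baseline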
Method in brief: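 Read-out: fluorescent reporter cDNA fragments resolved by capillary electrophoresis after RT-PCR and HpaI cut. Source cells were HepG2 carrying transfected multi-reporter GAL4 constructs, dosed 24 h. Increase over DMSO control analysed.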

[11] = target: Cellular tumor antigen p53 (Homo sapiens) (UniProt P04637); assay: TOX21_p53_BLA_p4_ratio: Tox21 HCT-116 p53 Agonism Beta-lactamase Assay, Ratio, Phase 4 (AID 2283601)
Method in brief: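 HCT116 cells carrying an inducible beta-lactamase reporter were plated at 4000 cells/well, rested 5 h, then exposed to compounds in DMSO (217-fold dilution) for 16 h at 37C. CCF4-AM substrate was loaded 2 h at room temperature; 460/530 nm emission ratio scored gain-of-signal versus DMSO.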

[12] = target: Retinoic acid receptor RXR-alpha (Homo sapiens) (UniProt P19793); assay: OT_NURR1_NURR1RXRa_0480: Odyssey Thera (OT) 8-hour HEK293T Protein Complementation Assay for Nurr1/retinoid X receptor (RXR) (AID 2283385)
Method in brief: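 Read-out: fluorescence from protein-fragment complementation between Nurr1 and RXRα in human HEK293T cells, 8 h after dosing. DMSO served as negative control; increased signal counted as activity.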

[13] = CCTE_Harrill_HTTr_CellCount_MCF7: CCTE's Cell Proliferation Assessment for the High-Throughput Transcriptomics (HTTr) Platform, Harrill Lab (AID 2284012);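 note: count of Hoechst-stained nuclei per well by high-content imaging in MCF-7 cells; cells exposed to compound for six hours; intended direction is loss of nuclei count meaning fewer cells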
Method in brief: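 Readout: Hoechst nuclear count by high-content imaging. MCF-7, 8-point dilution series, 6 h exposure. Bidirectional fit vs DMSO baseline.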

[14] = target: Nuclear receptor subfamily 1 group I member 2 (Homo sapiens) (UniProt O75469); assay: ATG_PXR_TRANS: Attagene TRANS-FACTORIAL HepG2 Assay for human Pregnane X Receptor (PXR) (AID 2283008)
Method in brief: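 Transient HepG2 transfectants carrying multiplexed reporter transcription units; PXR activity read through a Gal4 chimera. 24 h exposure. RT-PCR/CE fluorescence; upward curve fit referenced to DMSO.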

[15] = target: Cellular tumor antigen p53 (Homo sapiens) (UniProt P04637); assay: TOX21_p53_BLA_p5_ratio: Tox21 HCT-116 p53 Agonism Beta-lactamase Assay, Ratio, Phase 5 (AID 2283599)
Method in brief: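 HCT-116 cells carrying a p53-inducible beta-lactamase reporter were seeded at 4000 cells/well and dosed after 5 h with compound in DMSO (217-fold dilution). After 16 h at 37C, CCF4-AM substrate was added for 2 h, and the 460/530 nm emission ratio was scored as gain-of-signal versus DMSO.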

[16] = TOX21_p53_BLA_p5_viability: Viability Assessment in the Tox21 HCT-116 p53 Agonism Beta-lactamase Assay, Phase 5 (AID 2283600)
Method in brief: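 ATP luminescence (CellTiter-Glo, 30 min, RT) served as the viability read-out, with loss of signal indicating cytotoxicity. Compounds in DMSO were pinned at a 217-fold dilution onto 4000 cells/well and incubated 16 h, 37C.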

[17] = target: human Peroxisome Proliferator-activated Receptor delta (PPARd), PPARD (gene 5467) (UniProt Q03181); assay: ATG_PPARd_TRANS: Attagene TRANS-FACTORIAL HepG2 Assay for human Peroxisome Proliferator-activated Receptor delta (PPARd) (AID 2283002)
Method in brief: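 Measured quantity: GAL4-UAS reporter transcript induction in HepG2 after 24 h chemical dosing, with NR-Gal4 chimeras supplied by transient transfection. Detection by RT-PCR and capillary electrophoresis; upward fit against DMSO.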

[18] = ATG_XTT_Cytotoxicity: Cytotoxicity Assessment in the Attagene TRANS-FACTORIAL HepG2 Assay (AID 2283584);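 note: cells exposed to compound for 24 h before reading; active means loss of viability signal versus DMSO baseline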
Method in brief: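 XTT readout of cell number in transfected HepG2 cells, 24 h post-dosing; DMSO serves as negative control and baseline, with activity taken as loss of viability signal.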

[19] = ACEA_AR_agonist_AUC_viability: ACEA Biosciences xCELLigence Real-Time Cell Analysis on Androgen Receptor Agonism for Viability (AID 2283775)
Method in brief: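 Viability endpoint from xCELLigence impedance in 22Rv1 prostate cells at 80 h. Eight-point series, 100 uM maximum final.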

Measured: AC50

O=C(Nc1ccccc1)c1cc(Cl)ccc1O
active: [2] 13 µM | [4] 16.1 µM | [5] 3.55 µM | [6] 4.05 µM | [7] 12.6 µM | [8] 82.1 µM
inactive: [1] | [3]

CC(C)=CCOC(=O)c1ccccc1
inactive: [9] | [10] | [3] | [11]
inconclusive: [6] 46.1 µM

O=S(=O)(O)c1cc(S(=O)(=O)O)c2ccc3c(S(=O)(=O)O)cc(S(=O)(=O)O)c4ccc1c2c43
inconclusive: [9] 25 µM | [2] 25 µM | [14] 25 µM | [3] 25 µM

CCCCOCCOC(=O)c1ccccc1C(=O)OCCOCCCC
inactive: [8]
inconclusive: [6] 46.1 µM | [15] 46.1 µM and 83 µM | [16] 46.1 µM and 83.5 µM

CN(C)c1ccc(Cc2ccc(N(C)C)cc2)cc1
inconclusive: [9] 0.00914 µM | [18] 100 µM | [15] 46.3 µM | [11] 46.1 µM | [8] 13.7 µM | [13] 50 µM
active: [17] 58.5 µM
inactive: [3]

Quoted at random: two compounds from above, in no set order.
O=C(Nc1ccccc1)c1cc(Cl)ccc1O
active: [2] 13 µM | [4] 16.1 µM | [5] 3.55 µM | [6] 4.05 µM | [7] 12.6 µM | [8] 82.1 µM
inactive: [1] | [3]

O=S(=O)(O)c1cc(S(=O)(=O)O)c2ccc3c(S(=O)(=O)O)cc(S(=O)(=O)O)c4ccc1c2c43
inconclusive: [9] 25 µM | [2] 25 µM | [14] 25 µM | [3] 25 µM

Remaining list, next part

CCCCCCC(=O)c1ccccc1
inactive: [12]
inconclusive: [10] 100 µM

C=CC(=O)OCCCC
inconclusive: [9] 103 µM | [1] 103 µM | [10] 103 µM | [17] 102 µM | [3] 102 µM | [5] 45.8 µM | [7] 45.8 µM | [16] 47.2 µM | [8] 0.0269 µM | [13] 50 µM
inactive: [15] | [19]

NC(=O)c1cnccn1
inconclusive: [17] 103 µM | [2] 103 µM | [5] 45.6 µM | [6] 47.5 µM and 45.6 µM | [7] 47.5 µM and 45.6 µM and 36 µM | [16] 47.5 µM | [11] 45.6 µM | [13] 50 µM
inactive: [10] | [16]
